From PubChem BioAssay AID1487 (National Center for Advancing Translational Sciences (NCATS), 2009)
Values joined by “and” are separate entries in the source; they are usually repeats but may differ in a detail not shown here. Equal entries are not always repeated. This is one part of the list. These are further read-outs of the screen, such as a control signal, another cell line or another target. No call is given for them. Most of these compounds were active or inconclusive in the main read-out, so they are no random draw. Potencies come from curve fits of mixed quality, noted in brackets.

Assay: qHTS Assay for Modulators of Lamin A Splicing
Conditions: HeLa LMNA splicing GFP/RFP minigene ratio, 48 h
Method in brief: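 Read-out is the ratio of GFP to DsRed2 object intensity, acquired by 488 nm laser-scanning cytometry on HeLa lamin A-EGFP minigene reporter cells. Compound incubation 48 hrs at 37 °C in Opti-MEM with 2% FBS; DMSO 0.5% final.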

[1] = measured here: RFP viability control channel
[2] = measured here: GFP splicing reporter channel

| Compound | AC50 [1] | AC50 [2] |
| --- | --- | --- |
| CC1CN(S(=O)(=O)c2cccc(C(=O)NCc3ccc4c(c3)OCO4)c2)CC(C)O1 (stereo unspecified) | 12.6 µM [rising, partial curve] | – |
| CC(C)(Oc1ccc(C2CC2(Cl)Cl)cc1)C(=O)O (stereo unspecified) | 2.82 µM [rising, partial curve, poor fit] and 5.62 µM [rising, single point] | – |
| Fc1ccc(-c2nnc3sc(C4COc5ccccc5O4)nn23)cc1 (stereo unspecified) | – | 14.1 µM [rising, single point] |
| NC(=O)c1cc(C(N)=O)nc(Cl)n1 | 1.58 µM [falling, partial curve, poor fit] | – |
| CC(=O)Oc1ccc(C(=O)Nc2cc(NC(=O)c3ccc(OC(C)=O)cc3)cc(C(=O)NC(C)(C)C)c2)cc1 | 25.1 µM [rising, single point] | 25.1 µM [rising, single point] |
| COc1cc(/C=N/NS(=O)(=O)c2ccc3ccccc3c2)ccc1OCCN1CCOCC1 | – | 0.0562 µM [rising, full curve, poor fit] |
| CNC(=O)N/N=C(\N)c1ccccn1 | 10 µM [falling, partial curve] | – |
| CC(=O)c1c(C)[nH]c(C(=O)OCc2c(F)cccc2Cl)c1C | 1.26 µM [falling, full curve, poor fit] | 12.6 µM [falling, partial curve, poor fit] |
| O=C(NCCc1ccc(Cl)cc1)C1CCC(CNc2nc(=S)[nH]c3ccccc23)CC1 (stereo unspecified) | 35.5 µM [falling, single point] | – |
| COc1ccc(-c2[nH]ncc2CN2CCC(O)(c3ccc(Cl)cc3)CC2)cc1 | 5.62 µM [rising, full curve, poor fit] | – |
| COc1cc2c(cc1NC(=O)CN(C)Cc1cccc(OC)c1OC)oc1ccccc12 | 4.47 µM [rising, partial curve] | – |
| COc1cccc(-n2ccnc2SCC(=O)Nc2ccccc2)c1 | 25.1 µM [rising, single point] | – |
| O=C(/C=C/Sc1ccccc1)c1ccccc1 | 2.51 µM [falling, partial curve, poor fit] | 35.5 µM [falling, single point] |
| O=C(COc1ccccc1)N/N=C/c1ccc([N+](=O)[O-])o1 | 17.8 µM [rising, partial curve] | – |
| Oc1ccc(CN2CCCc3ccccc32)c2cccnc12 | 35.5 µM [rising, single point] | – |
| N=c1ccn(Cc2ccc(Cl)cc2Cl)cc1 | 2.82 µM [rising, full curve] | – |
| Cc1cccc(NC(=O)/C=C/c2ccc3c(c2)OCO3)n1 | 35.5 µM [rising, single point] | – |
| CCC(Sc1nnc(-c2ccc(C)c(Cl)c2)n1CC)C(=O)Nc1nccs1 (stereo unspecified) | 10 µM [rising, partial curve] | 2.24 µM [rising, full curve, poor fit] |
| COC(=O)c1cccc(NC(=O)CSc2nc3cccnc3n2C)c1 | 11.2 µM [rising, partial curve] | – |

A different layout for some results above:
Oc1ccc(CN2CCCc3ccccc32)c2cccnc12
  AC50 [1]: 35.5 µM [rising, single point]
N=c1ccn(Cc2ccc(Cl)cc2Cl)cc1
  AC50 [1]: 2.82 µM [rising, full curve]

(continued)

| Compound | AC50 [1] | AC50 [2] |
| --- | --- | --- |
| CC(C)(C)c1cccc(OCCCSc2ncccn2)c1 | 31.6 µM [rising, single point] | – |
| COc1cccc(OCCNC(=O)c2ccccc2Sc2ccccc2C#N)c1 | 17.8 µM [rising, partial curve] | – |
| CC1=CN2C(=N)/C(=C/c3ccc([N+](=O)[O-])o3)C(=O)N=C2S1 | – | 35.5 µM [falling, single point] |
| Cc1csc(=Nc2c(C)n(C)n(-c3ccccc3)c2=O)n1Cc1ccccc1 | 14.1 µM [rising, single point] | 22.4 µM [rising, single point] |
| CCc1nc2c(cnn2-c2ccc(F)cc2)c(=O)n1-c1ccc(N2CCC(C)CC2)cc1 | 2.82 µM [rising, partial curve] | – |
| COc1ccc(-c2[nH]nc3c2C(c2ccc(OC(=O)N4CCOCC4)cc2)C(C#N)=C(N)O3)cc1 (stereo unspecified) | 10 µM [rising, partial curve] | – |
| CCOc1ccc(NC(=S)N(CCc2c(C)[nH]c3ccc(C)cc23)Cc2ccco2)cc1 | – | 7.08 µM [rising, partial curve] |
| CCOC(=O)c1ccc(NC(=O)CC2SCCNC2=O)cc1 (stereo unspecified) | 0.00891 µM [rising, full curve, poor fit] | – |
| Cn1cc(-c2nc3cnc(Oc4ccccc4)nc3n(Cc3cccs3)c2=O)c2ccccc21 | 12.6 µM [falling, partial curve] | 17.8 µM [falling, partial curve] |
| COC(=O)c1ccc(/C=C/c2ccc3cccc(OC(C)=O)c3n2)cc1 | 31.6 µM [rising, single point] | – |
| Cc1ccc(C)c(Nc2ccc(C(=O)NCCc3ccccc3)cn2)c1 | 7.94 µM [rising, partial curve] | – |
| COc1cc(NC(=O)c2cc([N+](=O)[O-])ccc2Br)ccc1NC(=O)c1ccco1 | 35.5 µM [rising, single point] | – |
| CCC(C)NS(=O)(=O)c1ccc(S(=O)(=O)N2CCCC3(CCCCC3)C2)cc1 (stereo unspecified) | 7.08 µM [rising, partial curve] | – |
| COC(=O)c1ccc(/C=C(\C#N)C(=O)NC(C)c2ccccc2)cc1 (stereo unspecified) | 35.5 µM [falling, single point] | 25.1 µM [falling, single point] |
| COc1ccc(C2=NN(CC(=O)NCCCN(C)c3ccccc3)C(=O)CC2)cc1 | – | 3.16 µM [rising, single point] |
| Cc1nc(SCC(=O)c2cc3ccccc3oc2=O)c(C#N)c(-c2ccccc2)c1C(=O)Nc1ccccc1 | 8.91 µM [rising, partial curve, poor fit] | – |
| Cc1ccc2c(=O)cc(CSc3nnc(-c4ccccc4)n3C)[nH]c2c1C | 0.02 µM [rising, full curve, poor fit] | 0.0251 µM [rising, full curve, poor fit] |
| CCOC(=O)Cn1c(=O)n(C2CCCCC2)c2nc(-c3ccc(Cl)cc3)nc(C(N)=O)c21 | 4.47 µM [rising, partial curve, poor fit] | 5.62 µM [rising, partial curve] |
